Measured values published in article PMC7819943, “Rice protein-binding microarrays: a tool to detect cis-acting elements near promoter regions in rice”.
The list shows a part of the results.

Sequences of proteins named here, by UniProt entry; tags and fusion partners are left off.
UniProt Q0JBA9, entry or part of it: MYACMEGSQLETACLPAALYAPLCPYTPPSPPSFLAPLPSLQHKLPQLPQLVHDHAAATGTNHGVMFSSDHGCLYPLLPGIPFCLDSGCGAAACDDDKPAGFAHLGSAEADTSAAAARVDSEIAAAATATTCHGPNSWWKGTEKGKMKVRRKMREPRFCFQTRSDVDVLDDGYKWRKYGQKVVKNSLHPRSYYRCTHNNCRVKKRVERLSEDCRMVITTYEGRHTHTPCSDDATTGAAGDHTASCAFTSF

Molecular target: OsWRKY34 (Oryza sativa, UniProt Q0JBA9 1-250)
Assay: protein-binding microarray (RPBM); PBS, 2% BSA, 51.3 ng/ul salmon testes DNA, 50 uM zinc acetate, 200 nM TF, 25 C, 1 h; high values mean tight binding
Settings: protein: recombinant; tags: N-terminal polyhistidine and DsRed monomer fusion (pET32a); label: CyDye5-dUTP incorporated in the synthesized complementary strand; 3' TTTTT single-stranded linker to array surface; dsDNA, one strand shown
In short: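 An Axon 4000B scanner gave the binding signal as per-feature fluorescence intensity in arbitrary units. This followed washing of a custom Agilent array that had been incubated for 1 h at 25 °C with 200 nM protein in PBS, 2% BSA, salmon testes DNA and 50 µM zinc acetate. The proteins were transcription factors fused at the N-terminus to polyhistidine and DsRed, expressed in E. coli BL21-CodonPlus and purified on Ni–NTA.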

Sequence | binding signal
TAATCTTTCTTACTACTTTTTTTTCAATTTTTTATGACTTCGGAGTCACCTAGTGCAG | 8450 fluorescence intensity (a.u.)
TTATTTATTGTGGCCTACCTCTTGTCACCGCTGCTAGCTCCGGAGTCACCTAGTGCAG | 10800 fluorescence intensity (a.u.)
CCCTCGACACCCAGATGTTCTGGTTCCGCACCCACCTGCACGGAGTCACCTAGTGCAG | 11200 fluorescence intensity (a.u.)
CCTATTTTTTCTTATATATATATATATATATATATATAAACGGAGTCACCTAGTGCAG | 9240 fluorescence intensity (a.u.)
GCGATCTCCATCGCAGCGGAGGGGAGGGGAGGGGATCCTGCGGAGTCACCTAGTGCAG | 10300 fluorescence intensity (a.u.)
CCCTCATCTTGTCACCTTACAAAATCGTCCTTGAACCACACGGAGTCACCTAGTGCAG | 9230 fluorescence intensity (a.u.)
AATACCGTATGCGTTCACCTCAATCAATTGGTTGATTTTACGGAGTCACCTAGTGCAG | 9060 fluorescence intensity (a.u.)
ACTCTTGGTATGTTCTGCTTAGATACACTGTGTTGCTTGCCGGAGTCACCTAGTGCAG | 9380 fluorescence intensity (a.u.)
TTGTGCCTCAAGCCCTAACCTAGCCCAACGTCATTCCCGGCGGAGTCACCTAGTGCAG | 8930 fluorescence intensity (a.u.)
GAACACATGTTTGACCATTCGCTTTATTTAAAAATTTTATCGGAGTCACCTAGTGCAG | 8930 fluorescence intensity (a.u.)
TTGCGTGCTGTTCATCTTCTTCCTCTGTCATTGCCTCCTCCGGAGTCACCTAGTGCAG | 10900 fluorescence intensity (a.u.)
TGTGTGACGTTAACACGCTACTATTCCCTTCTGCCTAATCCGGAGTCACCTAGTGCAG | 8250 fluorescence intensity (a.u.)
GCGACCAACCACGAACCACGCCACACGCTCGCCGACTTCTCGGAGTCACCTAGTGCAG | 9640 fluorescence intensity (a.u.)
AGCACCATCCTCATCGCCGGCCGCGACGACATCTCCGAGGCGGAGTCACCTAGTGCAG | 9940 fluorescence intensity (a.u.)
TGGTGGTGTGTTTGCGCAGACGTTTTTCATATAATTGGTTCGGAGTCACCTAGTGCAG | 11000 fluorescence intensity (a.u.)
ACTATTGCCGTTTGTTGGTTTAGGAAAGTGGTATTCCTATCGGAGTCACCTAGTGCAG | 8660 fluorescence intensity (a.u.)
GCTCCGCCGCCGCCGCCGTTCAACCGCTCGTCTCCTCCTCCGGAGTCACCTAGTGCAG | 11800 fluorescence intensity (a.u.)
CTCACTGCTGCATTCCGCATTCCTCGCTCGCTCACCTCACCGGAGTCACCTAGTGCAG | 9640 fluorescence intensity (a.u.)
ACGTATCTCTGTTTGATAAAATGCCCACATGTATCCTGTACGGAGTCACCTAGTGCAG | 8270 fluorescence intensity (a.u.)
GCTAGGTGTGTTTGGTTGCCTGCATAGTCCTTGGCTCGAACGGAGTCACCTAGTGCAG | 9030 fluorescence intensity (a.u.)
AGGACCTACCCTGACCAGATTGTGATGAAGATGTTTCTCTCGGAGTCACCTAGTGCAG | 8420 fluorescence intensity (a.u.)

Sequence | binding signal
CACCTGGTTCAGTCTCTACCGTCCATCTGCGTCTCTCCTACGGAGTCACCTAGTGCAG | 9690 fluorescence intensity (a.u.)
CATTTTTGTTCGGTTGTGTTTTCCTTTTTTTTCCGGGTTTCGGAGTCACCTAGTGCAG | 12400 fluorescence intensity (a.u.)
CATTCTATTCAGCAAAAGCTGTTTGCCACTTTGCCGGTTCCGGAGTCACCTAGTGCAG | 9540 fluorescence intensity (a.u.)
GGTTATTATATCTACAAAATTCTTGCACACCTCAGCAATGCGGAGTCACCTAGTGCAG | 8090 fluorescence intensity (a.u.)
AGAGTTCTTATCCTAGTTTTTCCAACTCACTTATCTCGTTCGGAGTCACCTAGTGCAG | 10900 fluorescence intensity (a.u.)
CCATTGCCGCACCTCATCACCTCCTCGTCTTCTTCTTCCACGGAGTCACCTAGTGCAG | 9220 fluorescence intensity (a.u.)
GGCTGATTGGGCAGATTCTTTTATTGTTTCTATTTATAAACGGAGTCACCTAGTGCAG | 9290 fluorescence intensity (a.u.)
AATCTTCTCCACTCCACTTCTTGTGTGCCGAGCTTCGTTCCGGAGTCACCTAGTGCAG | 13300 fluorescence intensity (a.u.)
ACCATCAACCTCCACAAGCGCCTCCACAGCTGGTACGTCCCGGAGTCACCTAGTGCAG | 9680 fluorescence intensity (a.u.)
TAAGTTGTTTGACTTTTTTTCTAGTCAAACTTGTCTGAGTCGGAGTCACCTAGTGCAG | 17000 fluorescence intensity (a.u.)
ACAAATCCATTTGTTCCTTTGCCACTATGCTTTGATTTAGCGGAGTCACCTAGTGCAG | 8040 fluorescence intensity (a.u.)
TTTTGTTTCACCATTTCGGCTCACTCCATAGGACATGGAACGGAGTCACCTAGTGCAG | 9200 fluorescence intensity (a.u.)
TTTCTGTATAGGTTTTTGCCGGTTTCCCGTTTAATTAACCCGGAGTCACCTAGTGCAG | 11500 fluorescence intensity (a.u.)
AAGCTACCTGAACGGTTTCTCTGTACTTTATTTTTATGGTCGGAGTCACCTAGTGCAG | 8270 fluorescence intensity (a.u.)
TTGTAGGTAGTCGATTGCGTTGACATTTTGACATCATTTTCGGAGTCACCTAGTGCAG | 9450 fluorescence intensity (a.u.)
TCATCTCCATCTTTTTATTTACACGCACACTTCTCAAACTCGGAGTCACCTAGTGCAG | 11100 fluorescence intensity (a.u.)
GTACATTTCACTCTCTTTTATAACACTATAATTGCATCCCCGGAGTCACCTAGTGCAG | 8510 fluorescence intensity (a.u.)
CCTTATCCATGGAACTGTCTGCAACTTTTGTTATTGATGACGGAGTCACCTAGTGCAG | 10200 fluorescence intensity (a.u.)
CTCTGCCTTGCTCTTTTATCTCGATTCAGATACAGCGTAACGGAGTCACCTAGTGCAG | 9000 fluorescence intensity (a.u.)
TTGGTGTGGCATTTACCTGATATCACGAATAGTAGTGATACGGAGTCACCTAGTGCAG | 9590 fluorescence intensity (a.u.)
ACATCTGTGACTACGGACATGTATGGTATAGGGTTCTAACCGGAGTCACCTAGTGCAG | 8880 fluorescence intensity (a.u.)

10 successive records already listed, quoted:
Sequence | binding signal
GGTTATTATATCTACAAAATTCTTGCACACCTCAGCAATGCGGAGTCACCTAGTGCAG | 8090 fluorescence intensity (a.u.)
AGAGTTCTTATCCTAGTTTTTCCAACTCACTTATCTCGTTCGGAGTCACCTAGTGCAG | 10900 fluorescence intensity (a.u.)
CCATTGCCGCACCTCATCACCTCCTCGTCTTCTTCTTCCACGGAGTCACCTAGTGCAG | 9220 fluorescence intensity (a.u.)
GGCTGATTGGGCAGATTCTTTTATTGTTTCTATTTATAAACGGAGTCACCTAGTGCAG | 9290 fluorescence intensity (a.u.)
AATCTTCTCCACTCCACTTCTTGTGTGCCGAGCTTCGTTCCGGAGTCACCTAGTGCAG | 13300 fluorescence intensity (a.u.)
ACCATCAACCTCCACAAGCGCCTCCACAGCTGGTACGTCCCGGAGTCACCTAGTGCAG | 9680 fluorescence intensity (a.u.)
TAAGTTGTTTGACTTTTTTTCTAGTCAAACTTGTCTGAGTCGGAGTCACCTAGTGCAG | 17000 fluorescence intensity (a.u.)
ACAAATCCATTTGTTCCTTTGCCACTATGCTTTGATTTAGCGGAGTCACCTAGTGCAG | 8040 fluorescence intensity (a.u.)
TTTTGTTTCACCATTTCGGCTCACTCCATAGGACATGGAACGGAGTCACCTAGTGCAG | 9200 fluorescence intensity (a.u.)
TTTCTGTATAGGTTTTTGCCGGTTTCCCGTTTAATTAACCCGGAGTCACCTAGTGCAG | 11500 fluorescence intensity (a.u.)
